The target in assay [1] is AtCCA1 (… CLOCK-ASSOCIATED 1) (Arabidopsis thaliana) (UniProt P92973). As to the kind of experiment: two-hybrid; Matchmaker Y2H system (Clontech), Y2HGold yeast co-transfected with pGBKT7 and pGADT7 fusions; quadruple dropout medium (lacking tryptophan, leucine, histidine, adenine) with 150 ng/ml aureobasidin A and X-alpha-Gal (40 ug/ml).
The target in assay [2] is AtLHY (LATE ELONGATED HYPOCOTYL) (Arabidopsis thaliana) (UniProt Q6R0H1). Described as above.

Results are given in words; binding and its absence hold for the method and conditions named. Some results given as binding are weak or reduced against the parent protein; the word gives no strength.

B1: AtLHY (LATE ELONGATED HYPOCOTYL) (protein, UniProt Q6R0H1 1-645)
chain: MDTNTSGEELLAKARKPYTITKQRERWTEDEHERFLEALRLYGRAWQRIEEHIGTKTAVQIRSHAQKFFTKLEKEAEVKGIPVCQALDIEIPPPRPKRKPNTPYPRKPGNNGTSSSQVSSAKDAKLVSSASSSQLNQAFLDLEKMPFSEKTSTGKENQDENCSGVSTVNKYPLPTKQVSGDIETSKTSTVDNAVQDVPKKNKDKDGNDGTTVHSMQNYPWHFHADIVNGNIAKCPQNHPSGMVSQDFMFHPMREETHGHANLQATTASATTTASHQAFPACHSQDDYRSFLQISSTFSNLIMSTLLQNPAAHAAATFAASVWPYASVGNSGDSSTPMSSSPPSITAIAAATVAAATAWWASHGLLPVCAPAPITCVPFSTVAVPTPAMTEMDTVENTQPFEKQNTALQDQNLASKSPASSSDDSDETGVTKLNADSKTNDDKIEEVVVTAAVHDSNTAQKKNLVDRSSCGSNTPSGSDAETDALDKMEKDKEDVKETDENQPDVIELNNRKIKMRDNNSNNNATTDSWKEVSEEGRIAFQALFARERLPQSFSPPQVAENVNRKQSDTSMPLAPNFKSQDSCAADQEGVVMIGVGTCKSLKTRQTGFKPYKRCSMEVKESQVGNINNQSDEKVCKRLRLEGEAST
For B1, the binding result in assay [1] was “binds”; in assay [2], “binds weakly”.

Source of the values: publication PMC7044342.
